In paper PMC6178623:
These are yes or no findings as the source states them, for the method shown. Binding seen in cells or lysates may run through a third protein. Some binding calls cover weakened binding; strength is not graded here.

Amino acid sequences for entries named in this document (tags omitted). A change or cut given only in a name is not applied to a line headed by its entry. Chains listed by the source or under a name are the forms on record and can include a tag or linker. Residues count along the entry.
UniProt O95793: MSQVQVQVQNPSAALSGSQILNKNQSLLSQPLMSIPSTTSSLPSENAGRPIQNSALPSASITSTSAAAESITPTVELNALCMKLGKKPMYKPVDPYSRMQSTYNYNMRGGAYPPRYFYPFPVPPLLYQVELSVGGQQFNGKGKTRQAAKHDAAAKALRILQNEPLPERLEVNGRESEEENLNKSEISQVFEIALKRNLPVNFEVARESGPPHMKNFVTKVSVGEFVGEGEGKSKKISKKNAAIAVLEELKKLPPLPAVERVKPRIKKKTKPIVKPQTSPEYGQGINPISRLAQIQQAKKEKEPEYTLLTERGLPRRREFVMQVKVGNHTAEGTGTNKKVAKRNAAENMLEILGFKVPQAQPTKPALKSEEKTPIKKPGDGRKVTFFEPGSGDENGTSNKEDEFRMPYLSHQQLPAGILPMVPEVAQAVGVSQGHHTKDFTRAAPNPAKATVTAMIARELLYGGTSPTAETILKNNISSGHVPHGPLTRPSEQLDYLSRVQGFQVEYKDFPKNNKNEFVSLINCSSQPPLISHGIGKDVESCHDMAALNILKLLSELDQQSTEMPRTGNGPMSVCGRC
Flag-tagged Staufen1 (STAU1-Flag): residues 82-577 of O95793
UniProt Q05323: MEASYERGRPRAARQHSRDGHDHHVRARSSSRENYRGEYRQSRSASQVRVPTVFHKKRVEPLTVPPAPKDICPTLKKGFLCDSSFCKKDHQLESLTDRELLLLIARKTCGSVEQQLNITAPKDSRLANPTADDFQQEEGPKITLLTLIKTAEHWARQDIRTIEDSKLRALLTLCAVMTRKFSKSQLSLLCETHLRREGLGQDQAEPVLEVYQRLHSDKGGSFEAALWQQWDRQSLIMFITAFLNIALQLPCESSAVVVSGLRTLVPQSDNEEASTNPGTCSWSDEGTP
UniProt Q05127: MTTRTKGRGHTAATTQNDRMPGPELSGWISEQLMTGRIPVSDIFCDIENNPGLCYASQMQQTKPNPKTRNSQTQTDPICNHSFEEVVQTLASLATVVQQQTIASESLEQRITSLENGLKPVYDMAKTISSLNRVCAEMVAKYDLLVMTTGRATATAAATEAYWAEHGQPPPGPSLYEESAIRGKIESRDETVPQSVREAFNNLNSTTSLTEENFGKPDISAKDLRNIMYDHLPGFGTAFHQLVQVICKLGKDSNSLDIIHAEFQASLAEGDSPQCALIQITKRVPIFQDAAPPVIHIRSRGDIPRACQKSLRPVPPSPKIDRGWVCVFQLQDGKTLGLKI
UniProt P18272: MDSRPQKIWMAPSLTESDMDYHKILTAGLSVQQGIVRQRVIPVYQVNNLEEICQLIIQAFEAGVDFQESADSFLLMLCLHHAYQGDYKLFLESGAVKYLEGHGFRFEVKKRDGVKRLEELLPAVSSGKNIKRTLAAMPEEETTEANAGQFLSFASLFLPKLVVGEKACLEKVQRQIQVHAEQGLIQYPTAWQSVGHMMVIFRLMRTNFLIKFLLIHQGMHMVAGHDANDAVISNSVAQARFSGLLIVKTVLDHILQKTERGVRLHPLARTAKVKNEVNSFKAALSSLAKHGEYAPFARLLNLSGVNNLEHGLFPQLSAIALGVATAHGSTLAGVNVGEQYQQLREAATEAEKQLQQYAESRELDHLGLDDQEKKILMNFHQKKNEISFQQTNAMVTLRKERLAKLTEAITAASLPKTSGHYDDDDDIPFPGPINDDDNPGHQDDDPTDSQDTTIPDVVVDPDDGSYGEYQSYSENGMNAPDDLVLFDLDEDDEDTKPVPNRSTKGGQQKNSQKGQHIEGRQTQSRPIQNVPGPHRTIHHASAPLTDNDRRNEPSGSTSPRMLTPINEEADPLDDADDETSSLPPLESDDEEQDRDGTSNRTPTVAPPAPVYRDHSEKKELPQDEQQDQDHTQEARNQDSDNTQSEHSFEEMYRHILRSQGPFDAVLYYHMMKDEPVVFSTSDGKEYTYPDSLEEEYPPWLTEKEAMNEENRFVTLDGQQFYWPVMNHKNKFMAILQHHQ
UniProt P19525: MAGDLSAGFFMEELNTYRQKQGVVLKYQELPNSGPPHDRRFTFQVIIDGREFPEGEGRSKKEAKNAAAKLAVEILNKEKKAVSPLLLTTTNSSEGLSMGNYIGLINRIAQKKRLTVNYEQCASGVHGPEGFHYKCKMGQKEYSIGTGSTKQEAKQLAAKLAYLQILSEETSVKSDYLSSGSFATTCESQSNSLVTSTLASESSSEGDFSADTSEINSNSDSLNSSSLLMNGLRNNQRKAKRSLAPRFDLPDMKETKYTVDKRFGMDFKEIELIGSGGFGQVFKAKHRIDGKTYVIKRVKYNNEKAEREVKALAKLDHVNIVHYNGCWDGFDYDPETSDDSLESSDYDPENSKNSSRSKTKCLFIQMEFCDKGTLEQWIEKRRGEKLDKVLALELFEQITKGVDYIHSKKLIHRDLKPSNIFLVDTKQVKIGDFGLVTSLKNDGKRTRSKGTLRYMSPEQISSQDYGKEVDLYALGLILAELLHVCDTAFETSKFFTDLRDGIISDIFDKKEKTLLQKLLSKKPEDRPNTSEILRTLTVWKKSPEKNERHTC

What was measured:
[1] = molecular target: Flag-tagged Staufen1 (STAU1-Flag) (UniProt O95793); test: co-IP
[2] = molecular target: Ebola virus VP30, Flag-tagged (VP30-Flag) (Ebola virus (EBOV)) (UniProt Q05323); test: co-IP
[3] = molecular target: Ebola virus VP35 (as expressed for the sucrose gradient) (Ebola virus (EBOV)) (UniProt Q05127); test: co-sedimentation
[4] = molecular target: Ebola virus nucleoprotein (NP) (Ebola virus (EBOV)) (UniProt P18272); test: co-sedimentation

Substance	binding [1]	binding [2]	binding [3]	binding [4]
Ebola virus nucleoprotein (NP) (from UniProt P18272 1-739)	binds	–	–	–
eukaryotic initiation factor 2 (eIF2α) kinase 2 (EIF2AK2)/protein kinase R (PKR) (from UniProt P19525 1-551)	–	binds	–	–
endogenous Staufen1 (STAU1) (from UniProt O95793 1-577)	–	binds	binds	binds
